31 targets from the supplement of paper PMC12819154, “High-throughput peptide-centric local stability assay extends protein–ligand identification to membrane proteins, tissues and bacteria” (Nature Structural & Molecular Biology, 2025) can be followed below.

Chains of the proteins cited; added tags and fusions are not shown. Lines headed by an entry give the natural chain unless they say otherwise; changes in a name come on top.
UniProt O08807: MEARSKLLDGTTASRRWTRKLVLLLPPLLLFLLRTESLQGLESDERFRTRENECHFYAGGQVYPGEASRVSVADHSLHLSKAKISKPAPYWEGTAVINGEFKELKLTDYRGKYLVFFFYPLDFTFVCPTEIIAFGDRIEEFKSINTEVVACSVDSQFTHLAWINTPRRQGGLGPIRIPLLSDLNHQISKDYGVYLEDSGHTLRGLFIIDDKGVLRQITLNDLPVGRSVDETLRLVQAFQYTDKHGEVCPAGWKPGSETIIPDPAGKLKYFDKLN
UniProt E9Q2M9: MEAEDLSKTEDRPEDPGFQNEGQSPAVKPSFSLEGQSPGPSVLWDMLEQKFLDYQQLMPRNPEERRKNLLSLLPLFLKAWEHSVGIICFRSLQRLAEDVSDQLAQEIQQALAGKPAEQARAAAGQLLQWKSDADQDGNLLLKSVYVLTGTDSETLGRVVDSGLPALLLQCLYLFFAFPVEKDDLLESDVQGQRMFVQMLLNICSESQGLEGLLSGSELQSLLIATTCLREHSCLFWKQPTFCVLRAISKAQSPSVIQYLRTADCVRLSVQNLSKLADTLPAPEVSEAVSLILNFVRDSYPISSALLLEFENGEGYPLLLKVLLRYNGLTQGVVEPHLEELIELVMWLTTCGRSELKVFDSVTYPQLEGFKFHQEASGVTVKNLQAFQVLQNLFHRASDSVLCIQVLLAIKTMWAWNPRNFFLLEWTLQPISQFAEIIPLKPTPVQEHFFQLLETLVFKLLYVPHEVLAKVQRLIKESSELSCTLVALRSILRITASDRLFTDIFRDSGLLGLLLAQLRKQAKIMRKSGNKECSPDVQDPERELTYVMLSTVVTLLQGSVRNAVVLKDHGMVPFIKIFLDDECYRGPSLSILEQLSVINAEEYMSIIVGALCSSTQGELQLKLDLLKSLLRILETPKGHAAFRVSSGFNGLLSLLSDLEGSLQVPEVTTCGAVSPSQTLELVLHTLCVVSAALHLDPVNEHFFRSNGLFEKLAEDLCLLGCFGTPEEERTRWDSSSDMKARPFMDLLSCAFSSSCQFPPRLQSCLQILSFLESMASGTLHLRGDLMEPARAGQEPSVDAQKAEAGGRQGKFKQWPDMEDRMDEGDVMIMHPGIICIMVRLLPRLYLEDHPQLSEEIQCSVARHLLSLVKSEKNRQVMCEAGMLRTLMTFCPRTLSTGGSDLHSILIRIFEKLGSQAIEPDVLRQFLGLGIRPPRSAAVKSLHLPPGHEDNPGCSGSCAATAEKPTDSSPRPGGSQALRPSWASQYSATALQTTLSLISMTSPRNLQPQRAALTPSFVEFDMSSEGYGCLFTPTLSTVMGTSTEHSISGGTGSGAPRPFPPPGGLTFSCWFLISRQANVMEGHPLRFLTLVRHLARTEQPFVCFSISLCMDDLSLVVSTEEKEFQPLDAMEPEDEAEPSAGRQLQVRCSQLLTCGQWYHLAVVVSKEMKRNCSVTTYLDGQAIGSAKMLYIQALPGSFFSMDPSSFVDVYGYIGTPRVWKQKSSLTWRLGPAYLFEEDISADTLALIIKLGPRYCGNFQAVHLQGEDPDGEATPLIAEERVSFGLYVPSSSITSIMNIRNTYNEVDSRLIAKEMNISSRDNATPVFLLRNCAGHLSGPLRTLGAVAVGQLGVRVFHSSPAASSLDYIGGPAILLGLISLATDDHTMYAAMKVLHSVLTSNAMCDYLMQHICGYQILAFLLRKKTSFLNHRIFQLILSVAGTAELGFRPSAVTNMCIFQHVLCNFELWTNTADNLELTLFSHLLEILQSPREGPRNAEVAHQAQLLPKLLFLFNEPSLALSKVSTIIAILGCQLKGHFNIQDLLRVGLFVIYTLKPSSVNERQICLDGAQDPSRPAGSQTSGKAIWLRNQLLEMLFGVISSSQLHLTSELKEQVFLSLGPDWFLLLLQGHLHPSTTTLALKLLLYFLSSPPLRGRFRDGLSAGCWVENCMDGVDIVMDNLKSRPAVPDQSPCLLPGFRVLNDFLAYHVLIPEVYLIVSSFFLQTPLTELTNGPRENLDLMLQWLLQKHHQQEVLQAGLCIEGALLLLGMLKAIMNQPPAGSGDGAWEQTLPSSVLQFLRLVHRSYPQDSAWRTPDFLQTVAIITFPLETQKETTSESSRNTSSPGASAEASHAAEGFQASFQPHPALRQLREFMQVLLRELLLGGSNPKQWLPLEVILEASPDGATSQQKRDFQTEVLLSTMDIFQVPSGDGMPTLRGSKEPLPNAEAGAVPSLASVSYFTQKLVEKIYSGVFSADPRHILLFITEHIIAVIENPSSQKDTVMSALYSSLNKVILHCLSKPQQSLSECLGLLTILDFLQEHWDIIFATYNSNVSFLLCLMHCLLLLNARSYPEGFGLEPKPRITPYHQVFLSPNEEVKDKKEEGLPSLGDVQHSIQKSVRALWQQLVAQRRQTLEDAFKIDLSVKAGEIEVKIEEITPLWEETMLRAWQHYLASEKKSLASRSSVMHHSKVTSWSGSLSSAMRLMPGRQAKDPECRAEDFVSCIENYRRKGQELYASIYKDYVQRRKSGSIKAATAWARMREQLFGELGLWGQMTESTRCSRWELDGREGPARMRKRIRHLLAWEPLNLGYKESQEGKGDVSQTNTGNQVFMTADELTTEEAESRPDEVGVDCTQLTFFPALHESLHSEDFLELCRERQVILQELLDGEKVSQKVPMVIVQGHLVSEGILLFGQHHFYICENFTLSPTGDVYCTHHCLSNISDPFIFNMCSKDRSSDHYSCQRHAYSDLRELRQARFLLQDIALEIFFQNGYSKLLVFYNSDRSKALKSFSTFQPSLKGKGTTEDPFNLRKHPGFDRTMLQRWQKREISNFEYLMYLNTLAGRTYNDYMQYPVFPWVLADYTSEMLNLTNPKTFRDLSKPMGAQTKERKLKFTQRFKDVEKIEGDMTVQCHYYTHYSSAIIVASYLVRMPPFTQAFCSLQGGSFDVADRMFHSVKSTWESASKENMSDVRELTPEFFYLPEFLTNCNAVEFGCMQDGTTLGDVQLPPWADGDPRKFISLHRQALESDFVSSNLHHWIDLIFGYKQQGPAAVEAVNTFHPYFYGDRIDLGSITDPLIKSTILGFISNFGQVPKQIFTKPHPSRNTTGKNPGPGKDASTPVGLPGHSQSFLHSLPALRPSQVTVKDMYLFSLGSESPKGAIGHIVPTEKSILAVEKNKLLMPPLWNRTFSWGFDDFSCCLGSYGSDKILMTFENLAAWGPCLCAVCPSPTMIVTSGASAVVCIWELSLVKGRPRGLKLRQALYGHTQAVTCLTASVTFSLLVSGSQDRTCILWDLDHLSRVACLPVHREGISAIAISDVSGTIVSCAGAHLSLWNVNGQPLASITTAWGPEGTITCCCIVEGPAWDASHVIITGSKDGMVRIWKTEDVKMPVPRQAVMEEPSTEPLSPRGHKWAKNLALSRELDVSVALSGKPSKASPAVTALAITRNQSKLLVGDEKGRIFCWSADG
UniProt O08529: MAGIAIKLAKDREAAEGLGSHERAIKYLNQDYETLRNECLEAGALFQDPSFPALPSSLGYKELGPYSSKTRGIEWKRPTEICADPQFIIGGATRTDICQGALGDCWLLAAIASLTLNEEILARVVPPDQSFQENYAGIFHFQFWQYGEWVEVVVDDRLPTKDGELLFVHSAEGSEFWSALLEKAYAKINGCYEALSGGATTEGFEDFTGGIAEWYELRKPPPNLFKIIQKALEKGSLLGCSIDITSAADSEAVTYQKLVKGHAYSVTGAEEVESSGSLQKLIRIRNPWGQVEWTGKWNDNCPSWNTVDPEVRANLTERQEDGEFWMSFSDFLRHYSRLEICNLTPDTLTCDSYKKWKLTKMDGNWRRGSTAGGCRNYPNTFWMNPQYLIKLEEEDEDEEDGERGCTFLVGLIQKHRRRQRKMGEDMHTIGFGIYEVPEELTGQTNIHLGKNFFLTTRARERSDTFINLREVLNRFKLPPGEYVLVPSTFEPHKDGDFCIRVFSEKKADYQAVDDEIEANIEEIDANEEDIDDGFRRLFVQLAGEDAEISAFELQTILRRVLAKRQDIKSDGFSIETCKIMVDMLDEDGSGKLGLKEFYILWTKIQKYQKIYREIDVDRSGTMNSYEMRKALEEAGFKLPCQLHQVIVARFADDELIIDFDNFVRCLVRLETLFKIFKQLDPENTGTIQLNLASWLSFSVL
UniProt D3YZG8: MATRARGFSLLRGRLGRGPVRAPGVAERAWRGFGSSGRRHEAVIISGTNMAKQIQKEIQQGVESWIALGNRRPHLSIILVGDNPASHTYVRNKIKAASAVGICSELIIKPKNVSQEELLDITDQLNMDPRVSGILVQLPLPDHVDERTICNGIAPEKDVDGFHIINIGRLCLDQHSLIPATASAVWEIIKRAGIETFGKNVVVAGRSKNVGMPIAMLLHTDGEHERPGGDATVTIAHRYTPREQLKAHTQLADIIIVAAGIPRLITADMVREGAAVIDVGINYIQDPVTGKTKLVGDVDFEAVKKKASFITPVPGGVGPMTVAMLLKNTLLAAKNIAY
UniProt F8VPU2: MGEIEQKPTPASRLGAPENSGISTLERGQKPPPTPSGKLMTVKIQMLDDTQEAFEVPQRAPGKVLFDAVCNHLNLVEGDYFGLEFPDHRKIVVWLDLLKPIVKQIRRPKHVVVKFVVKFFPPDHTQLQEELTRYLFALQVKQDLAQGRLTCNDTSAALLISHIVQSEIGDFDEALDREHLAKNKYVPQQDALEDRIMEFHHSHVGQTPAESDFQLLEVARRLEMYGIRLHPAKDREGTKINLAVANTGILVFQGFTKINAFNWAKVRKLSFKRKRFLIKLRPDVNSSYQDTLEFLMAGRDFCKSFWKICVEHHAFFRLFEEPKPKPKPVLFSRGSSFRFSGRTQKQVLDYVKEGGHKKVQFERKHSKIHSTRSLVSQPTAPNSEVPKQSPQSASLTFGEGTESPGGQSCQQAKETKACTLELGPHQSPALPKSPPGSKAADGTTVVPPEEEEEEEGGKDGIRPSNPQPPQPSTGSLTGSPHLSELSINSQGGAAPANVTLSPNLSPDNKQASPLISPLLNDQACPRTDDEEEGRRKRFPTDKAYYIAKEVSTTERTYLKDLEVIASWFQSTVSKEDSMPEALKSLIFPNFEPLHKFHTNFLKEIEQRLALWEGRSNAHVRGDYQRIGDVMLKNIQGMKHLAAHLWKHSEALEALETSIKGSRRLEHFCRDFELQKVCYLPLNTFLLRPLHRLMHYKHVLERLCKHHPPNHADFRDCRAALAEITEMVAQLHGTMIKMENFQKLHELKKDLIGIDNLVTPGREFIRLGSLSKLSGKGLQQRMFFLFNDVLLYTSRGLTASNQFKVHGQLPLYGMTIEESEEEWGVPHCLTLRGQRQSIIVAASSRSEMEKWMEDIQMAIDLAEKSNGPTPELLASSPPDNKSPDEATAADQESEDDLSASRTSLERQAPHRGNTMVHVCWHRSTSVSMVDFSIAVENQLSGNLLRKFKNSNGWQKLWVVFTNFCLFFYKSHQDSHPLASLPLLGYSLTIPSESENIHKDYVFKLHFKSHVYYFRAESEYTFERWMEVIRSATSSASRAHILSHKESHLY
UniProt O08785: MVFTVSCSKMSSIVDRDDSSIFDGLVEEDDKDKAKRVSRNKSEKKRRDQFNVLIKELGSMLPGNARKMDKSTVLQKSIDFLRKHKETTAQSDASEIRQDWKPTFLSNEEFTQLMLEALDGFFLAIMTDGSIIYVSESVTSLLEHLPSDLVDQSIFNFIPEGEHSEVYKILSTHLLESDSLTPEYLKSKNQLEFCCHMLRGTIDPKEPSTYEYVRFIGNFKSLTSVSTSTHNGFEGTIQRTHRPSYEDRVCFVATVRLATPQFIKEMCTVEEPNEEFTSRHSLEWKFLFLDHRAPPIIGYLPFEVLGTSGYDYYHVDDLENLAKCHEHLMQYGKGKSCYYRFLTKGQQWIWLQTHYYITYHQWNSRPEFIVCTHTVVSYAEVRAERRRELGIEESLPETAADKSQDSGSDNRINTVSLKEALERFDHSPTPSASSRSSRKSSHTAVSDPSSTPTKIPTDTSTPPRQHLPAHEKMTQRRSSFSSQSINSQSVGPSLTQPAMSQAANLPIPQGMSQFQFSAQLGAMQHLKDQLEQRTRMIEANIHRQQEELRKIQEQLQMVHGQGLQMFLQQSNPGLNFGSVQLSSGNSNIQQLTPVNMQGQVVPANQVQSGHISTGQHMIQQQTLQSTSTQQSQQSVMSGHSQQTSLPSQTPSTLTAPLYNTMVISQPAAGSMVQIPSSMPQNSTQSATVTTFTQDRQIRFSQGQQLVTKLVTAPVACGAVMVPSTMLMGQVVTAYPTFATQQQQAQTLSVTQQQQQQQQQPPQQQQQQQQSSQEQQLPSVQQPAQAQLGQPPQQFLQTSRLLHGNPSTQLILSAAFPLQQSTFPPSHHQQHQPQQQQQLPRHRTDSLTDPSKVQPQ
UniProt O35127: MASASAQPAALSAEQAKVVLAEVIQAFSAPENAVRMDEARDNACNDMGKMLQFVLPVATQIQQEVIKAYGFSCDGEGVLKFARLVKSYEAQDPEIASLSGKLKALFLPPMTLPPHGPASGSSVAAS

The other results are listed elsewhere or left out. Most entries show no effect beyond the scatter of the controls.

Compound in this assay: CN[C@@H]1C[C@H]2O[C@@](C)([C@@H]1OC)n1c3ccccc3c3c4c(c5c6ccccc6n2c5c31)C(=O)NC4 [staurosporine]
In words: log2 fold change of tryptic peptide abundance, ligand vs vehicle (limited proteolysis) (log2 ratio); higher = more trypsin-susceptible (destabilized). Particulars: ligand concentration: 20 uM; sample: mouse liver crude lysate; replicate design: treated separately.
Take “UniProt O35149 (peptide sequence: MDPCDNCSK, peptide start residue: 92)”: the log2 fold change worked out at 0.19.

Regarding “UniProt O35250 (peptide sequence: WLVEYGR, peptide start residue: 205)”, the log2 fold change was -0.116.

Turning to “UniProt O35459 (peptide sequence: KMMADEALDSGLVSR, peptide start residue: 230)”, the log2 fold change was -0.523.

On to “UniProt E9QAG8 (peptide sequence: THSGEKPYECNQCGK, peptide start residue: 125)”, for which the log2 fold change was -0.308.

In the case of “UniProt O09030 (peptide sequence: QSKEETDSVVLIENLK, peptide start residue: 405)”, the log2 fold change was -0.239.

For the target “UniProt O35316 (peptide sequence: EGATPFHSR, peptide start residue: 593)”, the log2 fold change is -0.204.

Turning to “UniProt D3YXJ0 (peptide sequence: IVNSDEHAVVISSAK, peptide start residue: 496)”, the log2 fold change was found to be 0.327.

For the target “UniProt O35280 (peptide sequence: ILVETPSAR, peptide start residue: 245)”, the log2 fold change is -0.0131.

Take “UniProt B2RUP2 (peptide sequence: LALVYCSLIK, peptide start residue: 668)”: the log2 fold change worked out at 0.177.

As for “UniProt D3Z6Q9 (peptide sequence: GQTGKDTPSPGDVVLR, peptide start residue: 372)”, the log2 fold change was -0.233.

As to “UniProt O08807 (peptide sequence: QITLNDLPVGR, peptide start residue: 216)”, the log2 fold change was -0.64.

Regarding “UniProt O08832 (peptide sequence: RLPDLDTR, peptide start residue: 48)”, the log2 fold change is -0.184.

On to “UniProt E9Q2M9 (peptide sequence: GTTEDPFNLR, peptide start residue: 2518)”, for which the log2 fold change is -0.224.

“UniProt E9Q793 (peptide sequence: KKALDYAK, peptide start residue: 704)”: the log2 fold change is -0.0419.

Consider “UniProt O08529 (peptide sequence: KALEEAGFKLPCQLHQVIVAR, peptide start residue: 629)”, for which the log2 fold change was -0.716.

With “UniProt D3YZG8 (peptide sequence: AWRGFGSSGRR, peptide start residue: 29)”, the log2 fold change turned out to be 0.12.

With “UniProt O35448 (peptide sequence: WLFPTSMR, peptide start residue: 151)”, the log2 fold change was -0.124.

“UniProt B2RVL6 (peptide sequence: EHPQHLCEKCK, peptide start residue: 221)”: the log2 fold change was -0.817.

In the case of “UniProt F8VPU2 (peptide sequence: ACTLELGPHQSPALPK, peptide start residue: 417)”, the log2 fold change is -0.124.

With “UniProt O08785 (peptide sequence: HRTDSLTDPSK, peptide start residue: 841)”, the log2 fold change was determined as 0.192.

Take “UniProt O09039 (peptide sequence: ESLAGPPGHDYR, peptide start residue: 77)”: the log2 fold change was -0.535.

“UniProt G5E897 (peptide sequence: LQLVLLSK, peptide start residue: 319)”: the log2 fold change was 0.158.

“UniProt B2RXV4 (peptide sequence: ARPDDEVGPAVAPGHPLGK, peptide start residue: 2)”: the log2 fold change was found to be 0.0379.

As for “UniProt E9Q1P8 (peptide sequence: FKKEPALTAAGR, peptide start residue: 307)”, the log2 fold change is 0.239.

On to “UniProt O35379 (peptide sequence: ESKPVENGMLVTDTVGK, peptide start residue: 889)”, for which the log2 fold change is -0.172.

On to “UniProt O35134 (peptide sequence: GGTGLFELK, peptide start residue: 1705)”, for which the log2 fold change is 0.459.

Regarding “UniProt G5E8Q8 (peptide sequence: SALNSWEK, peptide start residue: 805)”, the log2 fold change came out at 0.188.

On to “UniProt O08795 (peptide sequence: HGGSPTSLGTWGSWAGPDHDKFSAMK, peptide start residue: 432)”, for which the log2 fold change was -0.601.

With “UniProt E9Q8D0 (peptide sequence: KLVEEQNAEK, peptide start residue: 222)”, the log2 fold change was -0.324.

As to “UniProt O08983 (peptide sequence: SQPFVADLR, peptide start residue: 425)”, the log2 fold change was -0.0407.

As for “UniProt O35127 (peptide sequence: DNACNDMGK, peptide start residue: 41)”, the log2 fold change was -0.011.
